For 41 compounds, AC50 results are on record in PubChem BioAssay AID493014 (National Center for Advancing Translational Sciences (NCATS), 2011).

The other results are listed elsewhere or left out. These are further read-outs of the screen, such as a control signal, another cell line or another target. No call is given for them. The list favours compounds with an active or inconclusive main result. Words in brackets tell the shape of the fitted curve; partial curves, single points and poor fits give uncertain potencies.

The nature of this assay: qHTS Assay to Find Inhibitors of Chronic Active B-Cell Receptor Signaling. Particulars: ABC-DLBCL IkBa-CBG/CBR reporter, luminescence ratio (green luciferase fused to IkBa over red control in TMD8 lymphoma cells), 4 h. The method in brief: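 Doxycycline induced both beetle luciferases in TMD8 lymphoma cells; IKK-driven degradation limits the IkappaBalpha-fused green signal, while red luminescence normalises for cell number and nonspecific effects. Compounds tested up to 46 uM, 4 hrs.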

The mark [1] stands for this setting: measured here: CBR red luminescence, cell number.
[2] abbreviates: measured here: IkBa-CBG green luminescence.

For `CC(C)OC(=O)Cn1nnc2c(cnn2-c2ccccc2)c1=O`, the AC50 under setting [1] is 29.1 µM [falling, single point]. On to `O=C1N(c2ccccc2)C(c2ccccc2)C12CCCCC2` (stereo not drawn), for which the AC50 under setting [1] was 5.17 µM [rising, partial curve, poor fit].

Take `O=S(=O)(c1ccccc1)c1nc(-c2ccco2)oc1Nc1ccccc1`: the AC50 under setting [1] is 14.6 µM [falling, single point]. Turning to `O=C(Cc1ccccc1[N+](=O)[O-])NCc1ccc(Cl)cc1Cl`, the AC50 under setting [1] is 14.6 µM [rising, partial curve, poor fit]. Same read-out and setting: the same measure for `Cc1ccccc1N1C(=O)CSC1=C(C#N)C#N`: 15.8 µM [falling, partial curve]; for `Cc1cc(/C=N/n2cnnc2)c(C)n1-c1ccc(OCc2ccc(F)cc2)cc1`: 8.91 µM [falling, partial curve, poor fit]; for `Cc1csc(SCC(=O)Nc2ccccn2)n1`: 7.31 µM [falling, partial curve, poor fit]. As to `S=c1[nH]nc(-c2ccco2)n1/N=C/C=C/c1ccccc1`, under setting [1], the AC50 was 35.5 µM [falling, single point]. With `Cc1ccccc1C(=O)NC1CC(C)(C)NC(C)(C)C1`, the AC50 under setting [1] is 0.82 µM [falling, full curve, poor fit]. On to `Cc1cc(C(=O)N/N=C2\CCCc3ccccc32)c(C)o1`, for which the AC50 under setting [1] was 9.2 µM [falling, partial curve]. Consider `CCOC(=O)c1ccc(N2CN=C3SCC(=O)N3C2)cc1`, for which, under setting [1], the AC50 is 12.6 µM [falling, partial curve, poor fit]. For `CC(C)C(NS(=O)(=O)c1c(Cl)cccc1Cl)C(=O)OCC(=O)c1c[nH]c2ccccc12` (stereo not drawn), the AC50 under setting [1] is 20.6 µM [falling, single point]. The same measure, in the same setting: for `Cc1ncc(CSc2ccc(Cl)cc2)c(CO)c1O` the value was 3.55 µM [rising, single point]; for `O=C(c1cccc(Cl)c1)N1CCCC(c2ccc(Cl)cc2)=N1`, 8.91 µM [falling, partial curve]. The same measure, in the same setting: for `CCC1SC2=NC(C)=C(C(=O)OCCOC)C(c3ccc(C(=O)OC)cc3)N2C1=O` (stereo not drawn) the value was 35.5 µM [rising, single point].

As to `COCCNC(=S)N1CCC(c2nc(-c3ccc(N(C)C)cc3)no2)CC1`, the AC50 under setting [1] was 35.5 µM [falling, partial curve, poor fit]. As to `COc1ccc2[nH]c3c(=O)n(CCc4ccccc4)cnc3c2c1`, the AC50 under setting [1] was 3.98 µM [falling, partial curve, poor fit]. As to `COC(=O)c1c(NC(=O)CSc2nnc(-c3cccnc3)n2Cc2ccco2)sc(C)c1C`, the half-maximal activity concentration (AC50) under setting [1] is 20.6 µM [falling, single point]. Same read-out and setting: the same measure for `Cc1cc(C(=O)CSc2nnc(Nc3ccccc3)s2)c(C)n1CC1CCCO1` (stereo not drawn): 1 µM [rising, full curve, poor fit]; for `COc1ccc(/C=C(\C#N)C(=O)NC(C)c2ccccc2)cc1O` (stereo not drawn): 35.5 µM [falling, single point]. Consider `CCOC(=O)/C(Sc1nc(-c2ccccc2)cc(-c2ccccc2)c1C#N)=C(\C)O`, for which the AC50 under setting [1] is 35.5 µM [rising, single point]. For `Cc1nc(CSc2nc3[nH]ncc3c(=O)n2-c2ccccc2)cs1`, the AC50 under setting [1] is 2.06 µM [falling, partial curve, poor fit]. As to `CCOC(=O)c1cnc2ccc(OCC)cc2c1N1CCN(c2ccccc2)CC1`, under setting [1], the AC50 is 15.8 µM [falling, partial curve, poor fit].

Consider `CCOC(=O)C1=C(C)NC(=O)NC1c1ccc(-c2ccc(Cl)cc2)o1` (stereo not drawn), for which the AC50 under setting [1] was 17.8 µM [falling, partial curve, poor fit].

Regarding `O=C(COC(=O)c1cccs1)Nc1nnc(-c2ccccc2)o1`, the AC50 under setting [1] is 18.4 µM [falling, partial curve].

Take `CC(C)c1ccc(Nc2nc(CC(=O)O)cs2)cc1`: the AC50 under setting [1] is 3.55 µM [rising, full curve]. Same read-out and setting: for `N#Cc1ccccc1-n1c(N)c(C(=O)N2CCCC2)sc1=S` the value was 3.55 µM [falling, partial curve, poor fit]. With `COC(=O)c1ccc(CSc2nnnn2Cc2ccccc2)cc1`, under setting [1], the AC50 was 0.326 µM [rising, full curve, poor fit]. Consider `COc1ccc(N=Nc2n(C)c3ccccc3[n+]2C)cc1`, for which the AC50 under setting [1] was 12.6 µM [falling, partial curve] and the AC50 under setting [2] is 15.8 µM [falling, single point].

With `CCOc1ccccc1Oc1ncnc2c1oc1ccccc12`, under setting [1], the concentration at half-maximal activity (AC50) was 35.5 µM [rising, single point]. For the compound `c1csc(C2=NNC(=NC3CCCCC3)SC2)c1`, the AC50 under setting [1] was 15.8 µM [falling, single point]. For `O=C(O)c1cccc(-n2cccc2/C=C\[N+](=O)[O-])c1`, the concentration at half-maximal activity (AC50) is, setting by setting: under setting [1], 14.1 µM [falling, single point]; under setting [2], 12.6 µM [rising, single point].

Regarding `Cn1ncc2c(Nc3ccc([N+](=O)[O-])cc3)nc(Cl)nc21`, the half-maximal activity concentration (AC50) under setting [1] was 11.2 µM [rising, partial curve]. As to `COc1ccc(C(C(=O)NC(C)(C)C)N(Cc2ccco2)C(=O)CCC(=O)Nc2cc(C)on2)cc1` (stereo not drawn), the AC50 under setting [1] was 32.6 µM [rising, single point]. As for `COC(=O)C1=CN(Cc2ccc(OC)c(OC)c2)C=C(C(=O)OC)C1c1ccc(O)cc1`, the half-maximal activity concentration (AC50) under setting [1] was 0.631 µM [rising, full curve, poor fit].

With `O=C(c1ccco1)N1CCN(c2ncnc3c2[nH]c2ccc(Cl)cc23)CC1`, the AC50 under setting [1] was 25.9 µM [falling, partial curve, poor fit]. On the same count and under the same terms, the same measure for `O=C(OCc1nnc(-c2ccccc2)o1)c1ccco1`: 11.2 µM [rising, single point]; for `CC(C)(C)c1ccc(S(=O)(=O)NCC(=O)N2CCN(C(=O)c3ccco3)CC2)cc1`: 7.31 µM [falling, single point].

In the case of `O=C(O)C1C2C=CC(C2)C1C(=O)Nc1ccc(Cl)c(Cl)c1` (stereo not drawn), the AC50 under setting [1] is 35.5 µM [rising, single point]. On the same count and under the same terms, for `O=C(O)COc1ccc(/C=C/c2nc(-c3ccccc3O)n[nH]2)cc1` the value was 3.98 µM [falling, full curve]; for `Cc1cccc(N2CN=c3s/c(=C\c4ccccn4)c(=O)n3C2)c1`, 11.2 µM [falling, partial curve].

Broadly, the AC50 is the midpoint of the concentration-response curve, whichever way the signal moves.
